Results reported in US9249035B2, “Method and system for treating water in order to reduce its endocrine disrupting effect by means of a living organism” (Veolia Water Solutions & Technologies Support, priority 2012, dated 2016).

Assay: Elimination of endocrine disruptors and toxic agents from municipal wastewater by the method with injection of ozone
Conditions: PAC (Norit) 10 ppm, FeCl3 4-5 mg/L as Fe, ozone 1 to 2 mg/l; for Concentration in treated water: 65 samples over six months

NS(=O)(=O)c1cc2c(cc1Cl)NCNS2(=O)=O [Hydochlorothiazide]
Percentage of elimination: 95% | Concentration in treated water: 0.146 µg/L

c1ccc2[nH]nnc2c1 [Benzotriazole]
Percentage of elimination: 97% | Concentration in treated water: 0.301 µg/L

CC(C)NCC(O)COc1ccc(CC(N)=O)cc1 (centres unmarked) [Atenolol]
Percentage of elimination: 82%

Cc1cc(NS(=O)(=O)c2ccc(N)cc2)no1 [Sulfamethaxole]
Percentage of elimination: 88% | Concentration in treated water: 0.03 µg/L

NC(=O)N1c2ccccc2C=Cc2ccccc21 [Carbamazepine]
Percentage of elimination: 99% | Concentration in treated water: 0.014 µg/L

O=C(O)Cc1ccccc1Nc1c(Cl)cccc1Cl [Diclofenac]
Percentage of elimination: 97% | Concentration in treated water: 0.034 µg/L
